Assay results reported in US20250268816A1, “EXTENDED-RELEASE FORMULATION CONTAINING CRESOL” (UNIVERSITY OF MARYLAND, BALTIMORE, priority 2022, published 2025).
At least one compound was matched to its structure with a doubt left. Some entries repeat one wording, which the source may state once for all of them.

Key:
[1] = Drug release study from the in situ gelling system (ISFGSs); assay type: physicochemical
Protocol: FIG. 29 is a graph showing the results of a dexamethasone release study using 6 wt % Dex and 24 wt % Polymer 80 μL.
FIGS. 30A and 30B are graphs showing the effect of polymer composition on the cumulative release of remdesivir from ISFGSs; 3 wt % 80 and 160 uL-24 wt %.
FIGS. 31A and 31B are graphs showing the effect of polymer composition on the cumulative release of GS-441524 from 80 μL of ISFGSs.
FIGS. 32A and 32B are graphs showing the effect of polymer composition on the cumulative release of GS-441524 from 160 μL of ISFGSs.
FIG. 33A and FIG. 33B are a set of graphs showing the effect of polymer composition and solution volume on the cumulative release of artemisinin from ISFGSs.
FIGS. 37A and 37B are graphs showing the cumulative release of gilteritinib from ISFGSs: Gilteritinib 4 wt % Release 80 μL PLGA 50/50 depots.

[2] = test system: feline infectious peritonitis (FIP); settings: cited from earlier work

CCC(CC)COC(=O)[C@H](C)N[P@](=O)(OC[C@H]1O[C@@](C#N)(c2ccc3c(N)ncnn23)[C@H](O)[C@@H]1O)Oc1ccccc1 [Remdesivir]
release from the in situ gelling system (in words) [1]: sustained release | activity against FIP in cell culture (in words) [2]: equivalent
